Test results taken from PubChem BioAssay AID248 (DTP/NCI, 2004).
The list shows only some results of the screen, not a fair sample: it covers a few groups of compounds. Not every dose and run of a compound is shown. T/C is the treated group as % of the vehicle group. Some doses have a count of surviving animals in place of a T/C: the source holds a T/C of zero for them, seemingly a mark for toxic or unscored doses. Some doses without a T/C left all or most animals alive at the check, yet need not have been tolerated: the source hardly ever lists a survival T/C far under the control, and the zero likely stands for such cases as well. Counts of survivors are from the toxicity check (mostly the fifth day) where no day follows; animals may have died later. Schedules are NCI's codes, read here as Q, the interval in days (D) or hours (H), X, the number of doses. Some schedule codes hold Z or #, which are not explained here. For survival time, the PubChem record calls one and a half times the control and up active, and a quarter to a half above the control has no call in these data; cut-offs in other NCI protocols can differ. Some entries hold several experiments; the values are given in rising order. Some T/C values are followed by the survivors on the day toxicity was checked, most often the fifth; without a count or a note in brackets, all were alive then. Some entries show no survivor count and are marked so; the dose need not have been tolerated. Some metal complexes and salts are drawn in pieces, as in the source, so charges may not balance.

System: L1210 leukemia ip in BDF1 mice, survival T/C
Experiment: NCI In Vivo Anticancer Drug Screen. Data for tumor model L1210 Leukemia (intraperitoneal) in B6D2F1 (BDF1) mice
Conditions: T/C endpoint: mean survival time, higher T/C = longer survival
[1] = dose: 100.0 mg/kg/injection, schedule: Q01DX001 (ip), vehicle: saline
[2] = dose: 200.0 mg/kg/injection, schedule: Q01DX001 (ip), vehicle: saline
[3] = dose: 400.0 mg/kg/injection, schedule: Q01DX001 (ip), vehicle: saline
[4] = dose: 100.0 mg/kg/injection, schedule: Q04DX003 (ip), vehicle: Klucel (hydroxypropylcellulose) (HPC)
[5] = dose: 200.0 mg/kg/injection, schedule: Q04DX003 (ip), vehicle: Klucel (hydroxypropylcellulose) (HPC)
[6] = dose: 400.0 mg/kg/injection, schedule: Q04DX003 (ip), vehicle: Klucel (hydroxypropylcellulose) (HPC)
[7] = dose: 100.0 mg/kg/injection, schedule: Q04DX002 (ip), vehicle: saline
[8] = dose: 35.0 mg/kg/injection, schedule: Q01DX Z (ip), vehicle: carboxymethylcellulose (CMC)

## NC(=O)C(=O)NNC(=S)NP(=O)(Oc1ccccc1)Oc1ccccc1
dose: 100.0 mg/kg/injection, schedule: Q01DX009 (ip), vehicle: carboxymethylcellulose (CMC)
  T/C: 101 % of control
dose: 200.0 mg/kg/injection, schedule: Q01DX009 (ip), vehicle: carboxymethylcellulose (CMC)
  T/C: 101 % of control
dose: 400.0 mg/kg/injection, schedule: Q01DX009 (ip), vehicle: carboxymethylcellulose (CMC)
  T/C: 91 % of control

## CCOC(=O)NP(=O)(NC(=O)NOC)NC(=O)OC(CCl)CCl (stereo not given)
[1]
  T/C: 96 % of control
[2]
  T/C: 98 % of control [4 of 6 alive]
[3]
  survivor count: 0 of 6

## O=C(CCCN1CCC(n2c(=O)n(CO)c3ccccc32)CC1)c1ccc(F)cc1
[4]
  T/C: 100 % of control
dose: 133.0 mg/kg/injection, schedule: Q04DX003 (ip), vehicle: Klucel (hydroxypropylcellulose) (HPC)
  T/C: 115 % of control
[5]
  T/C: 111 and 129 % of control
dose: 300.0 mg/kg/injection, schedule: Q04DX003 (ip), vehicle: Klucel (hydroxypropylcellulose) (HPC)
  survivor count: 4 of 6
[6]
  T/C: 106 % of control [4 of 6 alive]

## C1C[N-]1.C1C[N-]1.C1C[N-]1.[Br][Rh]([Br])[Br]
dose: 100.0 mg/kg/injection, schedule: Q01DX009 (ip), vehicle: Klucel (hydroxypropylcellulose) (HPC)
  T/C: 101 % of control
dose: 200.0 mg/kg/injection, schedule: Q01DX009 (ip), vehicle: Klucel (hydroxypropylcellulose) (HPC)
  T/C: 95 % of control
dose: 400.0 mg/kg/injection, schedule: Q01DX009 (ip), vehicle: Klucel (hydroxypropylcellulose) (HPC)
  T/C: 101 % of control

## CCN(CCCl)C1c2ccccc2-c2ccccc21
dose: 12.5 mg/kg/injection, schedule: Q04DX002 (ip), vehicle: Klucel (hydroxypropylcellulose) (HPC)
  T/C: 101 % of control
dose: 25.0 mg/kg/injection, schedule: Q04DX002 (ip), vehicle: Klucel (hydroxypropylcellulose) (HPC)
  T/C: 104 % of control
dose: 50.0 mg/kg/injection, schedule: Q04DX002 (ip), vehicle: Klucel (hydroxypropylcellulose) (HPC)
  T/C: 111 % of control

## CN(C)P(N)(Cl)(c1ccccc1)c1ccccc1
dose: 10.0 mg/kg/injection, schedule: Q01DX001 (ip), vehicle: saline
  T/C: 111 % of control
dose: 20.0 mg/kg/injection, schedule: Q01DX001 (ip), vehicle: saline
  T/C: 114 % of control
dose: 40.0 mg/kg/injection, schedule: Q01DX001 (ip), vehicle: saline
  T/C: 117 % of control
[1]
  survivor count: 0 of 6
[2]
  survivor count: 0 of 6
[3]
  survivor count: 1 of 6

## CN(C)[P+](C)(N(C)C)N(C)C
[7]
  T/C: 89 % of control [survivor count not shown]

## ClCCN(CCCl)c1ccccc1.[C-]#[O+].[C-]#[O+].[C-]#[O+].[Cr]
[4]
  T/C: 113 % of control
[5]
  T/C: 103 % of control
[6]
  survivor count: 6 of 6

## N#CCCN[N+](=O)[O-]
[1]
  T/C: 95 % of control [survivor count not shown]
dose: 100.0 mg/kg/injection, schedule: Q04DX003 (ip), vehicle: saline
  T/C: 105 % of control [survivor count not shown]
[2]
  T/C: 88 % of control [survivor count not shown]
dose: 200.0 mg/kg/injection, schedule: Q04DX003 (ip), vehicle: saline
  T/C: 101 % of control [survivor count not shown]
[3]
  T/C: 100 % of control [survivor count not shown]
dose: 400.0 mg/kg/injection, schedule: Q04DX003 (ip), vehicle: saline
  T/C: 108 % of control [survivor count not shown]

## NC(N)=NCCN[N+](=O)[O-]
dose: 50.0 mg/kg/injection, schedule: Q01DX001 (ip), vehicle: saline
  T/C: 100 % of control
[1]
  T/C: 100 % of control
[2]
  T/C: 105 % of control

## O=[N+]([O-])c1cc([N+](=O)[O-])c(NNc2ccccc2)c([N+](=O)[O-])c1
dose: 50.0 mg/kg/injection, schedule: Q01DX009 (ip), vehicle: Klucel (hydroxypropylcellulose) (HPC)
  T/C: 113 % of control [survivor count not shown]
[4]
  T/C: 103 % of control [survivor count not shown]
[6]
  T/C: 103 % of control [survivor count not shown]

## c1ccc2c(c1)CC1(C2)C[N+]12CCCCC2
dose: 25.0 mg/kg/injection, schedule: Q01DX009 (ip), vehicle: saline
  T/C: 100 % of control [5 of 6 alive]
dose: 50.0 mg/kg/injection, schedule: Q01DX009 (ip), vehicle: saline
  T/C: 107 % of control
[1]
  T/C: 87 % of control
dose: 100.0 mg/kg/injection, schedule: Q01DX009 (ip), vehicle: saline
  survivor count: 0 of 6
[2]
  survivor count: 1 of 6
[3]
  survivor count: 0 of 6

## CCCCOP(OCCCC)OCCCC
dose: 100.0 mg/kg/injection, schedule: Q04DX003 (ip), vehicle: saline with Tween-80
  T/C: 96 % of control
dose: 200.0 mg/kg/injection, schedule: Q04DX003 (ip), vehicle: saline with Tween-80
  T/C: 94 % of control
dose: 400.0 mg/kg/injection, schedule: Q04DX003 (ip), vehicle: saline with Tween-80
  T/C: 100 % of control

## CN(C)P(N)(Cl)(c1ccccc1)N(C)C
dose: 15.0 mg/kg/injection, schedule: Q01DX001 (ip), vehicle: saline
  T/C: 101 % of control
dose: 30.0 mg/kg/injection, schedule: Q01DX001 (ip), vehicle: saline
  T/C: 102 % of control
dose: 60.0 mg/kg/injection, schedule: Q01DX001 (ip), vehicle: saline
  T/C: 90 % of control
[1]
  survivor count: 1 of 6
[2]
  survivor count: 0 of 6
[3]
  survivor count: 0 of 6

## CCC(=O)ON[N+](=O)[O-]
[7]
  T/C: 103 % of control
dose: 200.0 mg/kg/injection, schedule: Q04DX002 (ip), vehicle: saline
  T/C: 114 % of control
dose: 400.0 mg/kg/injection, schedule: Q04DX002 (ip), vehicle: saline
  survivor count: 0 of 3

## O=C(O)COc1ccc(N(CCCl)CCCl)cc1
dose: 1.0 mg/kg/injection, schedule: Q01DX Z (ip), vehicle: carboxymethylcellulose (CMC)
  T/C: 104 % of control
dose: 1.5 mg/kg/injection, schedule: Q01DX Z (ip), vehicle: carboxymethylcellulose (CMC)
  T/C: 104 % of control
dose: 1.5 mg/kg/injection, schedule: Q01DX Z (ip), vehicle: methylcellulose (MC)
  T/C: 116 % of control
dose: 2.3 mg/kg/injection, schedule: Q01DX Z (ip), vehicle: carboxymethylcellulose (CMC)
  T/C: 115 % of control
dose: 2.3 mg/kg/injection, schedule: Q01DX Z (ip), vehicle: methylcellulose (MC)
  T/C: 130 % of control
dose: 3.5 mg/kg/injection, schedule: Q01DX Z (ip), vehicle: carboxymethylcellulose (CMC)
  T/C: 146 and 150 % of control [5 of 6 alive]
dose: 3.5 mg/kg/injection, schedule: Q01DX Z (ip), vehicle: methylcellulose (MC)
  T/C: 102, 127, 186 % of control
dose: 5.0 mg/kg/injection, schedule: Q01DX Z (ip), vehicle: methylcellulose (MC)
  T/C: 111, 134, 156 % of control
dose: 5.3 mg/kg/injection, schedule: Q01DX Z (ip), vehicle: carboxymethylcellulose (CMC)
  T/C: 114 % of control
dose: 8.0 mg/kg/injection, schedule: Q01DX Z (ip), vehicle: carboxymethylcellulose (CMC)
  T/C: 123 % of control
dose: 8.0 mg/kg/injection, schedule: Q01DX Z (ip), vehicle: methylcellulose (MC)
  T/C: 114 and 174 % of control
dose: 12.0 mg/kg/injection, schedule: Q01DX Z (ip), vehicle: carboxymethylcellulose (CMC)
  T/C: 138 and 145 % of control
dose: 12.0 mg/kg/injection, schedule: Q01DX Z (ip), vehicle: methylcellulose (MC)
  T/C: 97 and 126 % of control
dose: 18.0 mg/kg/injection, schedule: Q01DX Z (ip), vehicle: carboxymethylcellulose (CMC)
  T/C: 161 % of control
dose: 27.0 mg/kg/injection, schedule: Q01DX Z (ip), vehicle: carboxymethylcellulose (CMC)
  T/C: 101 % of control
[8]
  T/C: 91 % of control
  survivor count: 4 of 6
dose: 53.0 mg/kg/injection, schedule: Q01DX Z (ip), vehicle: carboxymethylcellulose (CMC)
  survivor count: 0 of 6
dose: 80.0 mg/kg/injection, schedule: Q01DX Z (ip), vehicle: carboxymethylcellulose (CMC)
  survivor count: 0 of 6
[1]
  T/C: 105 % of control
dose: 120.0 mg/kg/injection, schedule: Q01DX Z (ip), vehicle: carboxymethylcellulose (CMC)
  survivor count: 0 of 6
[2]
  T/C: 101 % of control
[3]
  T/C: 100 % of control
